Median seed-adjusted z-score data for 107 sequences are collected here from PubChem BioAssay AID1347426 (Functional Genomics Laboratory (NCATS/FGL), 2020).

The whole screen tested about 31,000 sequences, of which about 1,400 (4.5%) were called active.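 How the source made its calls: active means median seed-adjusted z-score above 1 or below -1; inactive means the rest.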 The list shows a part of the results.

This experiment can be described thus: Novel Modifiers of Survival Motor Neuron (SMN) Protein: Gene Identification via Genome-wide siRNA Screen.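 Further: luminescence tracks full-length SMN protein made from the SMN2 reporter.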 The settings on record: HEK293T SMN2-luciferase reporter, siRNA knockdown, 72 h; actives lie on both sides. The procedure, abridged:
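HEK293T cells stably carrying an SMN2 promoter/splicing cassette–luciferase reporter were reverse-transfected with 1 pmol siRNA per well (druggable-genome library, 3 siRNAs per gene) and grown 72 h at 37 °C. Luminescence, normalized to negative-control siRNA and log10-transformed, was scored as MAD.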
For orientation: In a reporter assay the amount or activity of a reporter protein is the signal.
In the case of CUCUGAUUAUCAUGAGAUATT against SRGAP2, the median seed-adjusted z-score is inactive: 0.0323.

On to GCGCUUUAGUGACUCAGAATT against STAT5A, for which the median seed-adjusted z-score is inactive: -0.229.

With GCGAGAUCCUGUUCAAUGATT against GGTLC2, the median seed-adjusted z-score is inactive: -0.288.

Take GAAAUAGUAUGGAUUUUUATT against PRMT6: the median seed-adjusted z-score is inactive: -0.412.

Consider CUCUAUGAAUAUUGUAUUATT against BUD31, for which the median seed-adjusted z-score was inactive: 0.0554.

GGAGGACUUCAUUCGAAAATT against PCLO: the median seed-adjusted z-score is inactive: -0.734.

For the sequence CCUGCCCUGUGAGUCUUUATT against FOXG1, the median seed-adjusted z-score is inactive: 0.749.

Consider GCACUUCAGCCAAAGAUUCTT against WWP2, for which the median seed-adjusted z-score is inactive: -0.685.

On to GGAAUUAUGCAUUGAAGUATT against ALDH18A1, for which the median seed-adjusted z-score is inactive: 0.116.

Regarding GGGUCCAAUUUACUACAGATT against RAB21, the median seed-adjusted z-score was inactive: 0.544.

As to CGGGCGGGUUUAACUCCAATT against PUS1, the median seed-adjusted z-score is inactive: -0.308.

Take CCUACAAGCUCCUAACAAATT against C1GALT1C1: the median seed-adjusted z-score was inactive: 0.

As for GCAUCCUCAUCAACCGCAATT against SAPS1, the median seed-adjusted z-score is active: 1.16.

Turning to CAGCUAGACUGGAUAGUAATT against ORC2L, the median seed-adjusted z-score was inactive: -0.101.

Take AGGAGAUCGUCGUCACUGATT against NNMT: the median seed-adjusted z-score is inactive: -0.095.

As for UACCUGAAGUUAAGCCUAATT against CA9, the median seed-adjusted z-score was inactive: 0.0833.

Take GCACUAAUCUGCAAACUGUTT against SPTB: the median seed-adjusted z-score is inactive: 0.153.

In the case of GGAAAGGAGUUGUACGAAATT against NCBP1, the median seed-adjusted z-score is inactive: 0.785.

On to GGUGCACCAAUGUACAUGATT against ITGA2, for which the median seed-adjusted z-score was inactive: 0.106.

On to GCUCAGUGUGCGAAAUUUATT against MED31, for which the median seed-adjusted z-score is inactive: -0.267.

In the case of CGCUGAUAGAGAUCGCAGATT against ZNFX1, the median seed-adjusted z-score was inactive: -0.368.

Consider GGACGGUCACGUUUACCUATT against GPR12, for which the median seed-adjusted z-score is inactive: 0.437.

Turning to CGGCUAGAAGAGCAACAAATT against MAP4K4, the median seed-adjusted z-score is inactive: 0.474.

As to CCUUCGAAAUUACCAGUAUTT against ZFYVE16, the median seed-adjusted z-score was inactive: 0.314.

Consider GGCACUAUUCUGCUAAGAATT against RAPGEF5, for which the median seed-adjusted z-score was inactive: 0.529.

Take GACUGUCAGGAAACGAGUATT against PDE8B: the median seed-adjusted z-score was inactive: 0.217.

In the case of CCACGAAGAAUGGAUUGAATT against TRIO, the median seed-adjusted z-score is inactive: 0.42.

Consider CUCUAUUACCUGCUCCAUATT against ZNF311, for which the median seed-adjusted z-score was inactive: 0.196.

As to CGUCAAUUCAGAUAUUGAATT against BPIL2, the median seed-adjusted z-score is inactive: -0.63.

On to GACUCCCUAUCGUACCGAUTT against LPHN2, for which the median seed-adjusted z-score was inactive: -0.817.

As to GGAGCGAGGCAACAACAUUTT against RAD54L2, the median seed-adjusted z-score was inactive: -0.0646.

In the case of GCAUAAUUCGGCAAAGGUUTT against ST8SIA1, the median seed-adjusted z-score was inactive: -0.25.

With CCUCAAGCCUGUAGAAGAATT against SMNDC1, the median seed-adjusted z-score is active: -1.54.

GGACCAUAGUCAGAGUGGATT against IFNB1: the median seed-adjusted z-score was inactive: 0.

As for CCUCUGACAAGUUACCUCATT against LEFTY1, the median seed-adjusted z-score is inactive: 0.383.

Take CGGCUAUAGAAACACUUAUTT against DDX53: the median seed-adjusted z-score is inactive: -0.136.

For UGAGCAGUGAGAACCCAUATT against PEAR1, the median seed-adjusted z-score was inactive: 0.071.

Take CAACCAUGUUCAGUAUAGATT against SPINK9: the median seed-adjusted z-score is inactive: 0.392.

UCUCCAUGGUGGUACAGGATT against PRDX5: the median seed-adjusted z-score is inactive: -0.0386.

AGACCUCAGUCACCUAUUATT against CYB5B: the median seed-adjusted z-score is inactive: 0.

On to CAUGGGAUUUUGUAAGAGATT against ERAP2, for which the median seed-adjusted z-score is inactive: 0.081.

CACCUUUACUAACAAAGGATT against ACIN1: the median seed-adjusted z-score is inactive: -0.674.

As to GAUGCAAGAUGGGUUUAUUTT against EBPL, the median seed-adjusted z-score was inactive: -0.113.

CAUCAGCUUCCGCAACUUUTT against LRP3: the median seed-adjusted z-score is active: -1.05.

For the sequence GAGUCAAAGAGGGUGGUAATT against DNAJB7, the median seed-adjusted z-score was inactive: 0.684.

With GCUAUAACUUUGAUCAAUATT against ZNF267, the median seed-adjusted z-score is inactive: 0.381.

Regarding GAAGUACCAGUACCGUUAATT against SI, the median seed-adjusted z-score is inactive: 0.

For ACCAGUACCUGGUGACGCATT against B3GALT6, the median seed-adjusted z-score is inactive: 0.169.

As to AGAUCAAGGCGGUCAUCAUTT against ACTL7B, the median seed-adjusted z-score is inactive: 0.572.

With GGACAAACACGGACAGUAUTT against EPHB4, the median seed-adjusted z-score is inactive: -0.143.

For the sequence CACUUUCCUGGGUAUUGUATT against ALDH3A2, the median seed-adjusted z-score is inactive: -0.0751.

Take ACAUCGUUGUGGUCAAGGUTT against ADAMTS15: the median seed-adjusted z-score was inactive: 0.765.

With GGAGAUCUUUGAGUACCUATT against BRPF1, the median seed-adjusted z-score was inactive: 0.

For GGGCAUUUUCUGUAUCAGATT against SGMS2, the median seed-adjusted z-score was inactive: -0.492.

CACUAGAAAUAACAAUGGATT against TMPRSS11D: the median seed-adjusted z-score is inactive: -0.0643.

Regarding GACUCCAAAUUUUCGAAUUTT against GPD1L, the median seed-adjusted z-score is inactive: 0.11.

As to CAGGCACUUUGUUUAUACATT against SERPINB8, the median seed-adjusted z-score is inactive: 0.371.

As to CAACCAGAAUUACUGCUAUTT against PCDH10, the median seed-adjusted z-score is inactive: -0.488.

On to GCGAUAUUAUCAUACUGGATT against ZNF470, for which the median seed-adjusted z-score was active: -1.26.

For the sequence CAAUGACCAUUGCUAAGAATT against HSPD1, the median seed-adjusted z-score was inactive: -0.146.

GUUUGAUGGUGAUAAGAAATT against PGD: the median seed-adjusted z-score is active: -1.55.

Consider GACAGACUGCUAUAACAAUTT against TTC9C, for which the median seed-adjusted z-score was inactive: -0.571.

Regarding GGACCACGAUGAUCAUUGATT against CRMP1, the median seed-adjusted z-score was inactive: -0.354.

Take GGACUGCUUCAUAUACUGATT against GLT8D1: the median seed-adjusted z-score is active: 1.22.

On to CUCUGGAUUUUGAUAGUUUTT against PPARGC1A, for which the median seed-adjusted z-score was inactive: -0.0953.

As to CCCUUGUAGGUAGCUCCUATT against SLC37A4, the median seed-adjusted z-score was inactive: -0.00202.

For GGAAGGUGAUUGAUCCUAATT against HNRNPD, the median seed-adjusted z-score is inactive: 0.504.

In the case of CCUUCAAAUAUUCUAGUAATT against ZNF670, the median seed-adjusted z-score is inactive: 0.

Regarding CGAGCAGUUUGGAGACGAATT against DNAJC5B, the median seed-adjusted z-score was inactive: 0.

Consider CCACGUUUCUCCAGUCAAATT against CDH17, for which the median seed-adjusted z-score is inactive: -0.167.

For AGAUAUUACAGUCAACUUUTT against UCRC, the median seed-adjusted z-score is inactive: -0.93.

Regarding GGCGGACCAUCUUCUGGAUTT against FOXP3, the median seed-adjusted z-score is inactive: -0.421.

As for GGCCUAUCAUCGAAAACCATT against SYT10, the median seed-adjusted z-score is inactive: 0.

Take GUGUAAAGCUUGUUCGAAUTT against CTNNA1: the median seed-adjusted z-score is inactive: -0.0588.

For the sequence CAACUGUUCCAACAACAAUTT against HAVCR1, the median seed-adjusted z-score was inactive: -0.306.

As to GGAAGAUUGCAGAUGAGAATT against SHMT1, the median seed-adjusted z-score was inactive: 0.179.

In the case of GGAUGUAGGUUCUUUUGAATT against GGPS1, the median seed-adjusted z-score was inactive: -0.372.

CGACGAAUUUGUGACAAGATT against ALDH1L2: the median seed-adjusted z-score was inactive: 0.

Consider AAUCCUUGGUGAUGAUUUUTT against EPN1, for which the median seed-adjusted z-score is inactive: 0.

Consider CGAUCUUGCUAAUUUAGGUTT against MATR3, for which the median seed-adjusted z-score was inactive: -0.259.

For the sequence CCAACUAUCCUAAAUCAGUTT against NSUN3, the median seed-adjusted z-score is inactive: 0.302.

Consider GGAAAUGCUUCUACCAGAATT against ZNF25, for which the median seed-adjusted z-score is inactive: -0.145.

CACUAUUCCCAGAUCUUUATT against SMAD5: the median seed-adjusted z-score is inactive: -0.701.

Turning to GGAACAAGAUUGUCCUGAATT against UBL5, the median seed-adjusted z-score was inactive: -0.706.

Take GCCUUCAAUUUUCAUACAATT against ZNF19: the median seed-adjusted z-score was inactive: 0.

As to GGAUGUUCGUGGUAGCCGATT against ATP2A3, the median seed-adjusted z-score was inactive: -0.28.

With CAGAUUAUCUUCGUUCAAATT against PAFAH1B1, the median seed-adjusted z-score was inactive: 0.391.

GGCAGAGAGUAAACAAGCATT against MIF4GD: the median seed-adjusted z-score was inactive: 0.373.

GAGGAUUAAUUUAAUCCUATT against GNE: the median seed-adjusted z-score was inactive: 0.393.

As for GCUUUAACGUGUCUGUGCATT against SLC25A5, the median seed-adjusted z-score is inactive: -0.0501.

For the sequence CCACACUGGUGAUAGACCATT against ZNF384, the median seed-adjusted z-score was inactive: -0.132.

With GGAGUACAGCAUCUCGGCATT against CACNG1, the median seed-adjusted z-score is inactive: -0.452.

With GCAUGGACUUUGCACCAAATT against SKIV2L, the median seed-adjusted z-score is inactive: 0.209.

With ACCUCGCGCUAUUACCUCATT against KCTD12, the median seed-adjusted z-score was inactive: 0.431.

Turning to GCCUAUCAGAAGCUCAUUUTT against ITGB8, the median seed-adjusted z-score was inactive: -0.0936.

For the sequence GAAUGAACAGGAGCUGUUATT against ADPGK, the median seed-adjusted z-score was inactive: 0.373.

For GGGACAUUUCCAAAUGGAATT against ARL6IP5, the median seed-adjusted z-score is inactive: -0.202.

In the case of CUGCAGGAAUUCUAUGAAATT against COPS2, the median seed-adjusted z-score is inactive: 0.202.

Consider GCUAUUUGCUGGCUACAAATT against POLR2J3, for which the median seed-adjusted z-score was active: -5.42.

With GCAGAGAGAUGAAGAUCUATT against ITGA5, the median seed-adjusted z-score was inactive: 0.915.

Turning to GAUACUAGCUAUUUUGACATT against MAST2, the median seed-adjusted z-score is inactive: 0.27.

On to GUGUGAGGUUUGUCAGAAATT against ZNF552, for which the median seed-adjusted z-score is inactive: 0.437.

In the case of CCCUAUGUAUGUAACAAUUTT against ZNF124, the median seed-adjusted z-score is inactive: -0.487.

Take GAGGCCUAGUGCAACCUAATT against LIPM: the median seed-adjusted z-score is inactive: -0.00856.

Turning to GAGACAAACUAAUUGAGAATT against PPP1R8, the median seed-adjusted z-score is inactive: -0.029.

For GGACGAGAGCUUGAACAGATT against BMPR1B, the median seed-adjusted z-score was inactive: 0.5.

As for GGAUGGUGUGGUGACCAUUTT against KCNIP2, the median seed-adjusted z-score was inactive: 0.415.
